PubChem BioAssay AID1259308 | NCATS | 2017

- Test: 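Knock-downs that increase output of a recombinant reporter protein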 (primary screen)
- System: human HEK293 embryonic kidney cells stably expressing firefly luciferase (HEK-CMV-Luc2-Hygro)
- Reagent: single siRNA against human genes, 0.8 pmol siRNA per well
- Time to read-out: 72 h
- Detection: 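Luciferase light (ONE-Glo) measured on one replicate plate set and viability (CellTiter-Glo) on the other, scaled to a negative control siRNA, with robust z-scores and luciferase per cell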
- Scale: total luciferase, z-score: higher = more reporter protein produced
- Hit rule: 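Active when the median/MAD z-score for overall luciferase is greater than 3; a gene was taken forward for validation with new siRNAs if at least two of its three siRNAs passed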
- Meaning of the calls: active = raised luciferase; inactive = no rise
The whole screen tested about 59,000 reagents; this is an unselected part. About 1,510 of them (2.6%) count as active. 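Calls use total luciferase alone and ignore viability, so some active siRNAs may act by altering cell number.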 Reagents against one gene are numbered here. Not all columns of the deposit are shown.

ARID1B #1 | total luciferase, z-score = -0.266; call = inactive
ARID1B #2 | total luciferase, z-score = -1.41; call = inactive
ARID1B #3 | total luciferase, z-score = 0.725; call = inactive
PHC1 #1 | total luciferase, z-score = 0.881; call = inactive
PHC1 #2 | total luciferase, z-score = -0.942; call = inactive
PHC1 #3 | total luciferase, z-score = -0.941; call = inactive
CISD1 #1 | total luciferase, z-score = 0.424; call = inactive
CISD1 #2 | total luciferase, z-score = -0.0347; call = inactive
CISD1 #3 | total luciferase, z-score = -0.112; call = inactive
HAMP #1 | total luciferase, z-score = 0.824; call = inactive
HAMP #2 | total luciferase, z-score = 0.21; call = inactive
HAMP #3 | total luciferase, z-score = -0.342; call = inactive
